The series has as its system MOLM-13 cells. The series is described as follows: Ubiquitin-enrichment screen by mass spectrometry. Type of series: cell-based, human. As to conditions: 2 μM, 24 hs. The protocol:
Details of the ubiquitin-enrichment screen are described herein. Briefly, MOLM-13 cells were treated for 24 hr. with 2 μM of UC-764864. Ubiquitin-related peptide enrichment was performed by using ubiquitin remnant motif (K-ε-GG) antibody-conjugated beads (Cell Signaling Technology, Danvers, Mass.) following the manufacturer's instructions. Tryptic peptides were loaded onto the beads, and then ubiquitin-conjugated peptides were eluted from the bead. Nanoliquid chromatography coupled to electrospray tandem mass spectrometry (nanoLC-ESI-MS/MS) analyses were performed on a TripleTof 5600+ mass spectrometer (Sciex; Concord, Ontario, Canada) coupled with a nanoLC-ultra nanoflow system (Eksigent; Dublin, Calif.) in data dependent acquisition (DDA) or data independent acquisition (DIA) modes for Sequential Window Acquisition of all Theoretical mass spectra (SWATH-MS) analysis.
MOLM-13 cells were treated for 24 hours with 2 μM of UC-764864. The identification of ubiquitinated peptides was performed as follows: approximately 3×10^8 cells were lysed in 10 mL urea-lysis buffer (20 mM HEPES pH 8.0, 9 M urea, 1 mM sodium orthovanadate, 2.5 mM sodium pyrophosphate, 1 mM β-glycerophosphate) and then sonicated at 15W×3 bursts of 15 sec with cooling on ice between each burst. The lysate was collected by centrifuge at 20,000×g, 15 min, 15° C. Protein estimation was performed by Pierce660 protein assay (ThermoFisher; Florence, Ky.). For the In-solution tryptic digestion, cell lysate proteins (10 mg) were reduced and alkylated by 4.5 mM dithiothreitol and 10 mM iodoacetamide, respectively, and then digested by 0.1 mg/mL TPCK-treated trypsin (Worthington; Lakewood, N.J.) overnight at room temperature with gentle mixing. The reaction was stopped by adding trifluoroacetic acid (TFA) to 1% final concentration. Tryptic peptides were desalted and recovered by Sep-Pak C18 cartridge (Waters; Milford, Mass.), dried by a lyophilizer and resuspended in 1.4 mL IAP buffer (Cell Signaling Technology; Denvers, Mass.) for further enrichment procedure. Ubiquitin-related peptide enrichment was performed by using ubiquitin remnant motif (K-ε-GG) antibody-conjugated beads (Cell Signaling Technology, Danvers, Mass.) following the manufacturer's instruction. Briefly, tryptic peptides in IAP buffer (1.4 mL) were loaded onto the beads, gentle mixed, and then incubated at 4° C. for 2 h. After washing the beads using 1 mL chilled HPLC-grade water three times, ubiquitin-related peptides were eluted from the bead by 0.15% TFA. The eluate was lyophilized and kept at −80° C. until used. […] To reduce redundant peptide sequencing, former MS/MS-analyzed candidate ions were excluded after its first occurrence for 12 s. The DDA data was recorded using Analyst-1T (v.1.7) software. […]

On to `CCc1ccc(C(=O)C=CSc2nc3ccc(C)cc3[nH]2)cc1` [UC-764864, 1-(4-ethylphenyl)-3-[(6-methyl-1H-benzimidazol-2-yl)sulfanyl]prop-2-en-1-one], for which the “peptides with a decrease in ubiquitination” value stood at 66, the “peptides with an increase in ubiquitination” value came to 55 and the “proteins differentially ubiquitinated vs DMSO” value turned out to be 73. The “peptides differentially ubiquitinated vs DMSO” value (fold change >|0.5|, P<0.05) was 121.

Source of the values: patent publication US20220267753A1, “RATIONAL THERAPEUTIC TARGETING OF ONCOGENIC IMMUNE SIGNALING STATES IN MYELOID MALIGNANCIES VIA THE UBIQUITIN CONJUGATING ENZYME UBE2N” (CHILDREN'S HOSPITAL MEDICAL CENTER, priority 2019, published 2022).
